No constants are given. Whether binding was seen depends on the method and setting. Binding seen in cells or lysates may run through a third protein. Some results given as binding are weak or reduced against the parent protein; the word gives no strength.
Target: human FADD death domain fused to a fluorescent protein (human) (UniProt Q13158)
Experiment: FRET or BRET; flow cytometric detection of FRET between CFP and YFP fusion proteins in living HEK293T cells, 48 h post-transfection, 447/488 nm dual laser excitation; cells gated to comparable expression of the CFP and YFP fusion proteins

The chains behind the UniProt entries cited, without tags or fusion partners. Where a name states a change or a piece, a line headed by the entry shows the natural chain unless it says otherwise. A line that says so, or that is headed by a name, gives the form on record, which may keep a tag or linker. Residues count along the entry.
UniProt Q13158, residues 97-181: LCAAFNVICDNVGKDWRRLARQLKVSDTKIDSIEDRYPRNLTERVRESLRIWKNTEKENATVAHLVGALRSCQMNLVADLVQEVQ
full-length human wild-type Fas fused to a fluorescent protein (P25445, residues 26-335): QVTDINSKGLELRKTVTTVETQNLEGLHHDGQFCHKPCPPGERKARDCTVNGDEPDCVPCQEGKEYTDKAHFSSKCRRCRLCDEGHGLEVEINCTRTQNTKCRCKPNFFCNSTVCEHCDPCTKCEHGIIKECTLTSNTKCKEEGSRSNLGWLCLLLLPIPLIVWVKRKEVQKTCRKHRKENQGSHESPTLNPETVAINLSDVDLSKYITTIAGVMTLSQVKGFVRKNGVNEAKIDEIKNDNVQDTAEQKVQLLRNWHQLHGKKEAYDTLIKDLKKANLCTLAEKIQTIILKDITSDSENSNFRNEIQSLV
full-length human Fas C199V palmitoylation mutant fused to a fluorescent protein (P25445, form named): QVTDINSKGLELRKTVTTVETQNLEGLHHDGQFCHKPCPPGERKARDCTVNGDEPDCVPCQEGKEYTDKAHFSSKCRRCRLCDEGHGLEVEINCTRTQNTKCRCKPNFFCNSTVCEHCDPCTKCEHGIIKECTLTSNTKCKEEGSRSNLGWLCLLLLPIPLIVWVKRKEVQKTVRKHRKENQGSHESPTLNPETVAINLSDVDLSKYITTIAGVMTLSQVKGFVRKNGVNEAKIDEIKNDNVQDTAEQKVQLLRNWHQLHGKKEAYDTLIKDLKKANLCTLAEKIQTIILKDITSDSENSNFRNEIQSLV

Substance	binding
full-length human Fas C199V palmitoylation mutant fused to a fluorescent protein (from UniProt P25445 26-335) (receptor)	binds
full-length human wild-type Fas fused to a fluorescent protein (from UniProt P25445 26-335) (receptor)	binds

Reference: article PMC5196435
